From the supplement of paper PMC3334620
Over roughly 33,000 sequences, “E-score (-0.5 to 0.5)” has its median near -0.016; the highest 2% begin near 0.3. Some of the results follow.

Target: T1, Yer184c (UniProt P39961)
T1 sequence: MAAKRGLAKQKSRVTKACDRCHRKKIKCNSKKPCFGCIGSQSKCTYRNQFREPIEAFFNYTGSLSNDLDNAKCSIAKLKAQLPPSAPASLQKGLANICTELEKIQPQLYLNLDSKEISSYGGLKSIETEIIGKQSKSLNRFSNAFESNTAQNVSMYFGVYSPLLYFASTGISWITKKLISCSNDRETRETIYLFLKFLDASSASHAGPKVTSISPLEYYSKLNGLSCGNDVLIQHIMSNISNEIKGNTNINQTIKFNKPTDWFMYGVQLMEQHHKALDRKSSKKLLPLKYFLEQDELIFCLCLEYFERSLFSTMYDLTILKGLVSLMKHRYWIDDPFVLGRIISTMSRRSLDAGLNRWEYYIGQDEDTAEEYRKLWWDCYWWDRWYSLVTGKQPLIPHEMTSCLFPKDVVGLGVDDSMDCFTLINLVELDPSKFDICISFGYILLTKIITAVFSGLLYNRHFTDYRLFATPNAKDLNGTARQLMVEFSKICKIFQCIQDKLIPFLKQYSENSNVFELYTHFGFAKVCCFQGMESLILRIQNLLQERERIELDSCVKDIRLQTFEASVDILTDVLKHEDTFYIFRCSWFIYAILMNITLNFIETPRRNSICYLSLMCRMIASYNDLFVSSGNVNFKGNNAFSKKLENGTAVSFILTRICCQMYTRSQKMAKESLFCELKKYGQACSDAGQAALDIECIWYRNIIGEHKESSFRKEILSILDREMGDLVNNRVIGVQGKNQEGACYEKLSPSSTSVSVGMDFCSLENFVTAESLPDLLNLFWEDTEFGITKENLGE
Assay: PBM E-score (8-mer binding enrichment) (E-score (-0.5 to 0.5)); higher = stronger / more preferred TF binding
Details: protein concentration: 100 nM; construct: GST-full length
Protocol: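 Universal 'all 10-mer' protein binding microarrays (Agilent AMADID 015681) probed with GST-tagged S. cerevisiae TFs (full-length or DBD) made by in vitro transcription/translation (PURExpress), about 100-200 nM. Bound TF was detected with fluorescent anti-GST. Each ungapped 8-mer (which stands for itself and its reverse complement) is scored by the PBM enrichment score (E-score), a modified Wilcoxon-Mann-Whitney statistic from -0.5 to +0.5, computed with the Universal PBM Analysis Suite. Scale: above 0.35 generally sequence-specific binding.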

Sequence	PBM E-score
ATTGCGAA	0.015
TGGAAGAA	0.184
ATCATGCC	0.0169
ACTCTACC	-0.0949
GGTGGTAA	0.156
CAAAAGTG	-0.154
CGCTGTCC	0.016
GAGACTCC	-0.103
AGGAGAGA	-0.122
GTCAAGTA	-0.187
CACTGCGC	-0.162
AAAGAGTG	-0.198
AGTAAAAG	0.143
GTCCACTA	-0.132
CGAAAGTC	0.0707
CCAGACCG	0.0882
CATCCACC	-0.0714
GTAAGAAA	-0.0375
CATAACCA	-0.0445
ATTAGTGA	0.0684
GTGAGTCA	-0.194
AACGAGTC	-0.0777
AGCCTCGC	-0.228
AGCATTGG	-0.225
AGCCCGGC	0.309

Sequence	PBM E-score
CCCACAGC	-0.218
AAAGTACT	-0.0242
ATAATTAG	0.203
ACCATGTG	-0.212
AAAGCGTC	-0.0236
TCCCATCA	-0.266
GCGTGGAA	-0.146
GTACAAAC	0.0283
GGCATGTA	-0.0945
TATGGTAA	0.116
CATGCGTC	-0.166
ATATCTCG	0.13
AGCCGAGC	0.318
GAGCGAAC	-0.141
CGGTATGA	0.175
GAGCGTCA	-0.142
TCAATACA	0.0627
AATGAAAG	0.0204
AAGAGTCA	-0.0511
AGCGAGTG	0.0192
GTGTGCTA	-0.0363
ATAACACC	0.0384
AGTCGACG	0.195
ATTAACTC	0.225
TGGCGCAA	-0.0859

Sequence	PBM E-score
GCCGTGAA	0.174
AGAGCACC	-0.286
GGTGTCTA	0.0247
AGGGTAGC	-0.241
GGGTGAAA	0.123
AGATTAAG	0.133
GCACGTCC	-0.0709
CGCGCGCA	0.221
ATCCTCGC	-0.127
TGTTCTAA	0.0972
AACGGGAC	-0.129
CACCCCGA	-0.0375
ACTATACC	0.0161
CGTACGGA	0.131
CCTAGAGG	-0.269
GTTGACCA	-0.0672
AAGTTACT	0.0522
ACCCGGGC	0.233
ATAAGCAG	0.00872
AATATAAC	0.18
AAATGGTT	-0.0168
CGCCCGAC	0.102
ACACGAGA	-0.102
CAGTCCAA	-0.188
ATGGGCCA	-0.0849

Sequence	PBM E-score
CTAGTACC	-0.198
GTAGGATA	-0.0565
ACGAGAAG	-0.133
AATCCACG	0.00561
TAAGCATA	0.0594
ATGAAGTC	-0.0525
CTACTCGA	0.088
TCACCGAA	0.26
AATTAGCA	0.236
ACGTGATA	-0.13
AAAAAAGA	0.0574
AGACAGCA	0.0789
CATACTCG	-0.0191
ACCGAAAG	0.181
AAGTGTTA	0.0223
TACTACAA	0.191
AGCGGACA	0.0828
ACATAAAC	0.217
AATAAACC	0.128
ATTAACGC	-0.0751
TCGCCAGA	-0.068
TCCGTCAA	0.215
ATAACTTG	-0.0817
ATTTACAA	0.117
AATTTCAG	-0.00746

Sequence	PBM E-score
AATAACCG	0.0925
CCTTGCCC	0.0186
AGCCAAGG	-0.16
AAAACTTA	0.245
CTAGTCGC	-0.207
CAGGAACA	-0.0366
CTAGACAA	0.0501
AACTAGCC	-0.0863
GAAGCGGC	0.049
GACGTGAA	0.00736
AGGGGGGC	-0.372
ACGGCCCC	-0.314
ACAGCAAG	0.0325
ATGATGCG	-0.0629
CCGCGCCG	0.291
CCCGAGTC	0.0466
CAACGTGA	-0.209
CACACCAC	-0.128
AATCCTTC	-0.0992
TACGTTCA	0.0776
GTTTGTTA	0.298
AAACTGCG	-0.0381
ATGCGCGG	0.049
ATGGCAGA	-0.0452
ATTGATCG	0.14

Sequence	PBM E-score
CCATCTTC	0.173
TCACAGGA	-0.0252
TACATATA	0.249
AGACTAGA	-0.211
TGTTGTAA	0.148
GGTCCGAA	0.303
ACACCAAC	-0.122
GCGGAACC	0.268
ACGCTACA	-0.123
CGTCCGTA	0.0308
ACCTAGAT	-0.243
CTTGTCCA	-0.0775
CAACAATC	0.114
CTTATTTA	-0.0503
TAGGCCGA	0.167
CTGTTTTA	0.0909
CAACATGC	-0.059
CGAGTGGA	-0.0248
AAAAGGTC	-0.0978
GCACCGGA	0.33
CCAATACC	-0.272
CACGTACG	-0.267
TGAGAGAA	0.0681
AGACGGTC	-0.0941
CCCTCTAA	-0.191

Sequence	PBM E-score
CAACTCGC	-0.00833
ATAGCGAA	0.178
GTCACAGA	-0.129
AACCCCTC	-0.327
CCGTAGAC	0.108
ACCTTCCT	-0.275
CAATAACG	0.182
GTATTGCA	-0.128
TATATTCA	0.195
CCAAGTGG	-0.0229
TCTGTGAA	0.197
CCCGATAA	-0.0514
TAGTACCA	-0.148
CAGTTATA	0.0323
CGCTCGGA	0.299
ATCCAAAC	0.0338
CGGCGCGC	0.275
AACCAGCC	0.162
AGATTCAC	-0.157
CAAAAAAA	0.247
CATCAGCG	-0.0203
TATATGGA	-0.146
ACGTGTTC	-0.0331
TACGCTAA	0.0349
AGTTCCAC	-0.00257

Sequence	PBM E-score
CATTCAAG	-0.043
CTACTTAA	-0.0571
AGTCCTAG	-0.258
CCTCCGTA	-0.0207
GAGTATGC	-0.00892
GACACGTA	-0.0547
GGCTCACA	-0.0762
CAGCGTAG	-0.00772
CATGTCGG	0.106
AGCGTCTC	-0.23
AAGGACCG	0.0399
CAGTCGTC	-0.134
CATCGAGC	-0.0549
CTCCGGTC	0.248
GAATGGCC	0.0188
CCTCCTGA	-0.216
ATACAGTA	0.114
CCGGGCAG	0.186
CAGCCGCG	0.137
ACCGTGAC	-0.0623
ACTTGACC	0.106
CGTGGTAC	-0.111
AAAAATGG	0.0645
TCCATACA	0.0788
TATTTCCA	0.0677

Sequence	PBM E-score
CGGAGCCC	-0.177
AGAAGACA	0.00189
AAGCGTTG	-0.128
AGGAGAGC	-0.29
CTATAGCA	0.0196
AAAGAGAC	0.0506
ATGCATCG	0.209
AGCGTCCG	-0.0165
AGTGTGAA	0.0486
GAATGTTA	0.154
AATTTAGG	0.136
ACGGCGAC	0.14
GATGCTAA	0.0993
ACTCCGGC	0.326
AAGCATAA	0.0496
GACAACTA	-0.023
ATCGTAGC	-0.0779
AGAGGCAT	-0.00025
AGACATAC	-0.0739
